Earlier results as cited in patent publication US20250134903A1, “COMPOSITIONS AND METHODS FOR TREATING PAIN” (priority 2023, published 2025).
Some of these results come from one statement about several compounds together. Some ranges recur; such a range may be that of the whole group of compounds.

Molecular target: muscarinic receptors
Settings: range stated for the listed H1-receptor antagonists together; read-out: affinity for muscarinic receptors (Ki); cited from earlier work

Q: Which Ki does the source give for `CN1CCCN(C(c2ccccc2)c2ccc(Cl)cc2)CC1` (stereo not shown) [homochlorcyclizine] here?
A: Its Ki is 5 to 38 nM.
